This passage reports binding results from paper doi:10.1101/715409 (bioRxiv, 2019).

What all share (test): split reporter
For assay [1], the target named is T1, Boi1CRU (Saccharomyces cerevisiae) (UniProt P38041).
T1 sequence: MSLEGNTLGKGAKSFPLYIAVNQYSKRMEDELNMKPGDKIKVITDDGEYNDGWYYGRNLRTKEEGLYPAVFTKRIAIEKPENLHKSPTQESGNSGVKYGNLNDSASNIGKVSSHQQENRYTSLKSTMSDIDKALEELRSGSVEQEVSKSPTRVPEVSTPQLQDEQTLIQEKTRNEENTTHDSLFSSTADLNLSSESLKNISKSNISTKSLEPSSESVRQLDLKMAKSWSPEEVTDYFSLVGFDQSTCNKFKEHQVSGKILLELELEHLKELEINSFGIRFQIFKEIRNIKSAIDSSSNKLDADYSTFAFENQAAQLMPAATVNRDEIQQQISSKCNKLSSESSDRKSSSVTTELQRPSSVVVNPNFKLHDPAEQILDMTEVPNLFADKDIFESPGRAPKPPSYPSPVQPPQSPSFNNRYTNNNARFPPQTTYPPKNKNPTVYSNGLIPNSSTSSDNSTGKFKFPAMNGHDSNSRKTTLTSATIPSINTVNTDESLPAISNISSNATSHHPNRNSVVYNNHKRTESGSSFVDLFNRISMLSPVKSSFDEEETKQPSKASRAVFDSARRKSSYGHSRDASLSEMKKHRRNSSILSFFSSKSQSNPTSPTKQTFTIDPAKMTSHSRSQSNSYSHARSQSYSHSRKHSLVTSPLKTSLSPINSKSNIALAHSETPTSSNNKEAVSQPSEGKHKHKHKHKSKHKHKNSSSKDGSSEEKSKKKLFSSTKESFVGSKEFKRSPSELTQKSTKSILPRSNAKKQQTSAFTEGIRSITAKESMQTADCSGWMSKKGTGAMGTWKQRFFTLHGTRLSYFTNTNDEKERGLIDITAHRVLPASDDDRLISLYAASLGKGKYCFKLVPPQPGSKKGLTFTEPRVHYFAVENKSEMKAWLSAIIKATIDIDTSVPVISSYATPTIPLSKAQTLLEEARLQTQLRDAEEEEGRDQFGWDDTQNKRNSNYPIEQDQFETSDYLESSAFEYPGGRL

For assay [2], the target named is T2, Boi1_(Δ86-178)CRU (Saccharomyces cerevisiae) (UniProt P38041).
T2 sequence: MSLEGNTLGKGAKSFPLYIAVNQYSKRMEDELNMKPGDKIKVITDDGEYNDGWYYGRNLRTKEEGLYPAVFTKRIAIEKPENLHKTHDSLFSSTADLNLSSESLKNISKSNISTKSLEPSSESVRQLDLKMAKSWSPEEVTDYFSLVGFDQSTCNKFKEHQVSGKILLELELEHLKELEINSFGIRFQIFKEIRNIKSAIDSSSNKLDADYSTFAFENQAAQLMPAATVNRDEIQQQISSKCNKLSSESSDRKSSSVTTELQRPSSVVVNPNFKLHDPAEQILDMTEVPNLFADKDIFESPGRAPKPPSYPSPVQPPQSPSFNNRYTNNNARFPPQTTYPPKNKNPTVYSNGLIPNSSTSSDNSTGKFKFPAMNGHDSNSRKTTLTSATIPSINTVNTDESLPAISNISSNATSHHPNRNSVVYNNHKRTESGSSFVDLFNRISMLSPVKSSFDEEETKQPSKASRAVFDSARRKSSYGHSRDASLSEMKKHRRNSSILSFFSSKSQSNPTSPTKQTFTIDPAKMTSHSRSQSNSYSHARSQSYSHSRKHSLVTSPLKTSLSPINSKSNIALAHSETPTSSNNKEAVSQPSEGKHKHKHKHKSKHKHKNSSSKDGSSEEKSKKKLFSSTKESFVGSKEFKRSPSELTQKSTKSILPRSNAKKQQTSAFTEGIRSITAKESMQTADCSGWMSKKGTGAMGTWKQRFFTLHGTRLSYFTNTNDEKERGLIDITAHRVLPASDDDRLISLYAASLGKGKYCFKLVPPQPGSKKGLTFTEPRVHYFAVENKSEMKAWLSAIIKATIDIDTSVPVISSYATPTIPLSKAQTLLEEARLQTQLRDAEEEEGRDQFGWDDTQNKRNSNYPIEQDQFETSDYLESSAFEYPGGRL

The target in assay [3] is Bni1CRU (Saccharomyces cerevisiae) (UniProt P41832).
The target in assay [4] is T3, Bud6CRU (Saccharomyces cerevisiae) (UniProt P41697).
T3 sequence: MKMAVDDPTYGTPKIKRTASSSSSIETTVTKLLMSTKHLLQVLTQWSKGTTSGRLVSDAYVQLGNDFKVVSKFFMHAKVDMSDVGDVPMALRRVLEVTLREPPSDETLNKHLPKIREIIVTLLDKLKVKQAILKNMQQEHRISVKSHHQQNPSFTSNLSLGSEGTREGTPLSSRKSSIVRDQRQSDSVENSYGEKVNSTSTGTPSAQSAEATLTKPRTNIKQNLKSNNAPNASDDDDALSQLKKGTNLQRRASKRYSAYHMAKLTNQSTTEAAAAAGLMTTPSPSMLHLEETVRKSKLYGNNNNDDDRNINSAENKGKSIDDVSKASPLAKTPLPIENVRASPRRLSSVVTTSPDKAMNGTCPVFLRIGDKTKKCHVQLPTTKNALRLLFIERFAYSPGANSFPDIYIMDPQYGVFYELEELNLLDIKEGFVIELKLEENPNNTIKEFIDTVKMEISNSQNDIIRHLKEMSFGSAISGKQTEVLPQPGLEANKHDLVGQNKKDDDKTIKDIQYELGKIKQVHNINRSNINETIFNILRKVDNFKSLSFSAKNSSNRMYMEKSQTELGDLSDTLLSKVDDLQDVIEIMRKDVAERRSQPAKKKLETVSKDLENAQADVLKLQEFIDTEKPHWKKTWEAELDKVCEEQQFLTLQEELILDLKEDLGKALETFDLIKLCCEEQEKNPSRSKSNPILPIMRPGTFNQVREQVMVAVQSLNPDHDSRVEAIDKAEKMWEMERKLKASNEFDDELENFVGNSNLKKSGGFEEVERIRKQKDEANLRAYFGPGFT

Assay [5] deals with T4, CRU fusion to the N-terminal 854 residues of Bni1 (Saccharomyces cerevisiae) (UniProt P41832).
T4 sequence: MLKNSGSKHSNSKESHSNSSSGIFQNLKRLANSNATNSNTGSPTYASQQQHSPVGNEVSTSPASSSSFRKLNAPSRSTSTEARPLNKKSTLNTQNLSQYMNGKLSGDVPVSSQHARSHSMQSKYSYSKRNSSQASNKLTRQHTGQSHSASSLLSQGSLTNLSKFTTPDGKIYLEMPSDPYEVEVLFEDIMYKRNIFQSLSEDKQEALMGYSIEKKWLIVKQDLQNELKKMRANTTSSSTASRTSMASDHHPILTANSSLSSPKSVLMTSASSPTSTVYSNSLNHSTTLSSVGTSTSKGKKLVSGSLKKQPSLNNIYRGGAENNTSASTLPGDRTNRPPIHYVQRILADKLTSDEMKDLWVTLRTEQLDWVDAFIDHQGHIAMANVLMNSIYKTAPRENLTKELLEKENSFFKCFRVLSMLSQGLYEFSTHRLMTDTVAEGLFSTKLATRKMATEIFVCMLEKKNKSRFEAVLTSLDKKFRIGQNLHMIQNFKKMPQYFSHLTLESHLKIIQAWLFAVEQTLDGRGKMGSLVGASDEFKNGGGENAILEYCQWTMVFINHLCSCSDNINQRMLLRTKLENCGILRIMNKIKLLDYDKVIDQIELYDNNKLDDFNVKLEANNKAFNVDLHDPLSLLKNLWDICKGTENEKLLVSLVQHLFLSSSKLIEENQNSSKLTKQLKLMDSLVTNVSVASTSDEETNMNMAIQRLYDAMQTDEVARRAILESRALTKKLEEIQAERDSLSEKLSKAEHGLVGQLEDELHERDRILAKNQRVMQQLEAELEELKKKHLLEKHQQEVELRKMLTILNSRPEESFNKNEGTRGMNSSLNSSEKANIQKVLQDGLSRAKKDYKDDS

Results are given in words; binding and its absence hold for the method and conditions named. In cells and extracts the contact can be indirect. Some results given as binding are weak or reduced against the parent protein; the word gives no strength. For some assays here: Tags and fused reporters may be left off the sequences shown.

B1: Nub-Bud6 (protein, UniProt P41697 1-788)
chain: MKMAVDDPTYGTPKIKRTASSSSSIETTVTKLLMSTKHLLQVLTQWSKGTTSGRLVSDAYVQLGNDFKVVSKFFMHAKVDMSDVGDVPMALRRVLEVTLREPPSDETLNKHLPKIREIIVTLLDKLKVKQAILKNMQQEHRISVKSHHQQNPSFTSNLSLGSEGTREGTPLSSRKSSIVRDQRQSDSVENSYGEKVNSTSTGTPSAQSAEATLTKPRTNIKQNLKSNNAPNASDDDDALSQLKKGTNLQRRASKRYSAYHMAKLTNQSTTEAAAAAGLMTTPSPSMLHLEETVRKSKLYGNNNNDDDRNINSAENKGKSIDDVSKASPLAKTPLPIENVRASPRRLSSVVTTSPDKAMNGTCPVFLRIGDKTKKCHVQLPTTKNALRLLFIERFAYSPGANSFPDIYIMDPQYGVFYELEELNLLDIKEGFVIELKLEENPNNTIKEFIDTVKMEISNSQNDIIRHLKEMSFGSAISGKQTEVLPQPGLEANKHDLVGQNKKDDDKTIKDIQYELGKIKQVHNINRSNINETIFNILRKVDNFKSLSFSAKNSSNRMYMEKSQTELGDLSDTLLSKVDDLQDVIEIMRKDVAERRSQPAKKKLETVSKDLENAQADVLKLQEFIDTEKPHWKKTWEAELDKVCEEQQFLTLQEELILDLKEDLGKALETFDLIKLCCEEQEKNPSRSKSNPILPIMRPGTFNQVREQVMVAVQSLNPDHDSRVEAIDKAEKMWEMERKLKASNEFDDELENFVGNSNLKKSGGFEEVERIRKQKDEANLRAYFGPGFT
For the molecule B1, the values for the binding result in assay [1] and in assay [2] were “binds” and “no binding”, respectively.

B2: Nub-Boi1 (protein, UniProt P38041 1-980)
chain: MSLEGNTLGKGAKSFPLYIAVNQYSKRMEDELNMKPGDKIKVITDDGEYNDGWYYGRNLRTKEEGLYPAVFTKRIAIEKPENLHKSPTQESGNSGVKYGNLNDSASNIGKVSSHQQENRYTSLKSTMSDIDKALEELRSGSVEQEVSKSPTRVPEVSTPQLQDEQTLIQEKTRNEENTTHDSLFSSTADLNLSSESLKNISKSNISTKSLEPSSESVRQLDLKMAKSWSPEEVTDYFSLVGFDQSTCNKFKEHQVSGKILLELELEHLKELEINSFGIRFQIFKEIRNIKSAIDSSSNKLDADYSTFAFENQAAQLMPAATVNRDEIQQQISSKCNKLSSESSDRKSSSVTTELQRPSSVVVNPNFKLHDPAEQILDMTEVPNLFADKDIFESPGRAPKPPSYPSPVQPPQSPSFNNRYTNNNARFPPQTTYPPKNKNPTVYSNGLIPNSSTSSDNSTGKFKFPAMNGHDSNSRKTTLTSATIPSINTVNTDESLPAISNISSNATSHHPNRNSVVYNNHKRTESGSSFVDLFNRISMLSPVKSSFDEEETKQPSKASRAVFDSARRKSSYGHSRDASLSEMKKHRRNSSILSFFSSKSQSNPTSPTKQTFTIDPAKMTSHSRSQSNSYSHARSQSYSHSRKHSLVTSPLKTSLSPINSKSNIALAHSETPTSSNNKEAVSQPSEGKHKHKHKHKSKHKHKNSSSKDGSSEEKSKKKLFSSTKESFVGSKEFKRSPSELTQKSTKSILPRSNAKKQQTSAFTEGIRSITAKESMQTADCSGWMSKKGTGAMGTWKQRFFTLHGTRLSYFTNTNDEKERGLIDITAHRVLPASDDDRLISLYAASLGKGKYCFKLVPPQPGSKKGLTFTEPRVHYFAVENKSEMKAWLSAIIKATIDIDTSVPVISSYATPTIPLSKAQTLLEEARLQTQLRDAEEEEGRDQFGWDDTQNKRNSNYPIEQDQFETSDYLESSAFEYPGGRL
Turning to B2, the binding entry in assay [3], in assay [4] and in assay [5] was “binds” in each case.
